Data on two substances can be found in PMC10580383, “Development of Melanocortin 4 Receptor Agonists by Exploiting Animal-Derived Macrocyclic, Disulfide-Rich Peptide Scaffolds” (ACS Pharmacology & Translational Science, 2023).

The chains behind the UniProt entries cited, without tags or fusion partners.
UniProt P56450: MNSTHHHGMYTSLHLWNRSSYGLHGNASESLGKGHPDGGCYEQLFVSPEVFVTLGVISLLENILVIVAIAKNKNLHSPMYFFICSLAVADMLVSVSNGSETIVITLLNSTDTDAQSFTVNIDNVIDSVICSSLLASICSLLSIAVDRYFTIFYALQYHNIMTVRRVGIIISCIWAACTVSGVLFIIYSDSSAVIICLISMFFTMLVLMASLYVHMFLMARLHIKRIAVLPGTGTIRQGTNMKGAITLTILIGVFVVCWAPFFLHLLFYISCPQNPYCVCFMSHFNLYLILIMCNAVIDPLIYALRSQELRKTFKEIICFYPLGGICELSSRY
UniProt P32245: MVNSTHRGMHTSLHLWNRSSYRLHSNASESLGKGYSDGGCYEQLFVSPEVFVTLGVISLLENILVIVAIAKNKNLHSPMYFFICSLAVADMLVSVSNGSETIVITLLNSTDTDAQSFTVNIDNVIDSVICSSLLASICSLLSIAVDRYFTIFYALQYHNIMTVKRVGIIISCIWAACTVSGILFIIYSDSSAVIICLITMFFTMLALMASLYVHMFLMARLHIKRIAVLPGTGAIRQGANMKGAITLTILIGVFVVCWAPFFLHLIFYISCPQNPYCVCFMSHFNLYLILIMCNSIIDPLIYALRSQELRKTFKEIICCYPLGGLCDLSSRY
UniProt P32121: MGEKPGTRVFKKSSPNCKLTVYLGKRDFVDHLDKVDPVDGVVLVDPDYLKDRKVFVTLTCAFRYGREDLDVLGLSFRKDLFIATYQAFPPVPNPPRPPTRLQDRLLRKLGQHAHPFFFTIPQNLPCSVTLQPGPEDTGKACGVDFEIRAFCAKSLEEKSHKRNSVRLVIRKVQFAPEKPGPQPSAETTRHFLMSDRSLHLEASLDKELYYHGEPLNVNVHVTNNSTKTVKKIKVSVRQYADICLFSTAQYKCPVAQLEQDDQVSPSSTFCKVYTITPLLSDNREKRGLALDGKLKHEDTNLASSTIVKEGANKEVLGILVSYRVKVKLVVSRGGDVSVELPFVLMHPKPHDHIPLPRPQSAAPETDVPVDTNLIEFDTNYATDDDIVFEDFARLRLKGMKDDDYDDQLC

Experiment [1] has as its target mouse melanocortin 4 receptor fused to EGFP (mouse) (UniProt P56450). Briefly: FRET or BRET; kinetic BRET in live HEK293 cells cotransfected with β-arrestin-2-nanoluciferase and mouse MC4R-EGFP (1:10); furimazine; cells treated with 10 μM peptide ligand (NDP-α-MSH, Ta1LPs, Pr4LPs, Ar3LPs, GoLPs) in HBSS; read over 35 min at 510/460 nm, vehicle subtracted.
Experiment [2] has as its target human melanocortin 4 receptor with C-terminally fused SmBit (human) (UniProt P32245). Kind of experiment: split reporter; nanoluciferase complementation in live cells between human MC4R-SmBit and β-arrestin-2-LgBit (cotransfection 1:10 β-arrestin-2:receptor); HBSS, furimazine; read 5 min after adding α-MSH, Pr4LP1 or Ar3LP1.

No constants are given. Whether binding was seen depends on the method and setting. Binding seen in cells or lysates may run through a third protein. Some results given as binding are weak or reduced against the parent protein; the word gives no strength.

As to “β-arrestin-2 fused to nanoluciferase (from UniProt P32121 1-409)”, in experiment [1], the binding entry was “binds”.
In the case of “β-arrestin-2-LgBit (from UniProt P32121 1-409)”, the binding entry in experiment [2] was “binds”.
